Test results reported in paper doi:10.1101/2023.06.13.544862.
No constants are given. Whether binding was seen depends on the method and setting. Some entries that bind do so weakly or less than the wild type. Tags and fused reporters may be left off the sequences shown.

The chains behind the UniProt entries cited, without tags or fusion partners.
UniProt O75530: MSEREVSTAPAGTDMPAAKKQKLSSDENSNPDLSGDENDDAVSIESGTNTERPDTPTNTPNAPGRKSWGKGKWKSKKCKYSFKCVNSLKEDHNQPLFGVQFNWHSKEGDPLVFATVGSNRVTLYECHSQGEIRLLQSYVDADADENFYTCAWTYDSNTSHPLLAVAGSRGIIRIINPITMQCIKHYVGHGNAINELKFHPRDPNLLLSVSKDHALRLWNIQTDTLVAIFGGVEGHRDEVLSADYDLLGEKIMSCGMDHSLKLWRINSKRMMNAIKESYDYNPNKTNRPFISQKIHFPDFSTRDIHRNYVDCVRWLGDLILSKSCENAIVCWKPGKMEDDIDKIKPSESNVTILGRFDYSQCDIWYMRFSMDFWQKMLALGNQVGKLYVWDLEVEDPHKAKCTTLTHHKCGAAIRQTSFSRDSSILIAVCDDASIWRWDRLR

Assays:
Assay in all cases: pull-down
[1] = target: T1, GST-tagged full-length NOP16 (human) (UniProt Q9Y3C1)
T1 sequence: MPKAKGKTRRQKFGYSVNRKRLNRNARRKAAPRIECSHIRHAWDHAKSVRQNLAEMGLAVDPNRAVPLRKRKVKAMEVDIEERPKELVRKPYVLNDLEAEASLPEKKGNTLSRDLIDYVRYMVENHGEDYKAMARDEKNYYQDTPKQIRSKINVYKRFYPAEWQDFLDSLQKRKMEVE

[2] = target: T2, GST-tagged NOP16 1-38 (human) (UniProt Q9Y3C1)
T2 sequence: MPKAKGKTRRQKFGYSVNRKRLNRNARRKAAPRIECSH

[3] = target: T3, GST-tagged NOP16 1-22 (human) (UniProt Q9Y3C1)
T3 sequence: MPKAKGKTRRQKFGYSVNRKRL

[4] = target: T4, GST-tagged NOP16 67-88 (human) (UniProt Q9Y3C1)
T4 sequence: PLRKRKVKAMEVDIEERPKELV

[5] = target: T5, GST-tagged NOP16 39-176 (human) (UniProt Q9Y3C1)
T5 sequence: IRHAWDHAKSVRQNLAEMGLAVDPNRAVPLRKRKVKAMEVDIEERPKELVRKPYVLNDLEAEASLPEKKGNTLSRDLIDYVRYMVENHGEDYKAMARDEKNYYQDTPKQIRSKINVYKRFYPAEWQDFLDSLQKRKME

[6] = target: T6, GST-tagged NOP16 23-44 (human) (UniProt Q9Y3C1)
T6 sequence: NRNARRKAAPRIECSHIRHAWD

Measured: binding

EED pulled down by GST-tagged NOP16 constructs (from UniProt O75530 1-441)
binds: all assays above
